Our source for the z-score values is PubChem BioAssay AID1347423 (Functional Genomics Laboratory (NCATS/FGL), 2020).

The campaign covered roughly 52,000 sequences. About 210 (0.4%) were called active.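 Rule for the calls: active = gene whose silencing raises cell survival under the drug, median off-target-corrected z-score across its silencing RNAs 2 or more; inactive = the rest.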 This is one part of the list.

This assay is described as follows: Resistance to Poly (ADP-Ribose) Polymerase inhibitor: Gene Identification via Genome-wide siRNA Screen. The following applies: mouse BRCA2 R2336H ES cells, olaparib, CellTiter-Glo viability; stronger effect = higher value. The method in brief:
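Genome-wide siRNA screen (3 siRNAs/gene, 20 nM) in mouse ES cells carrying hypomorphic BRCA2 R2336H; olaparib 500 nM added 48 h post-transfection, CellTiter-Glo viability 72 h later. Normalized to plate-median negative control; MAD z-scores, gene median, seed-adjusted.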
Background: Cellular ATP, detected with luciferase, serves as a proxy for viable cell number.
For CUUUGAUGAUAUUGCUGCUTT against Olfr849, the z-score was inactive: -1.26. The figure for GGAUUAAUCAAACUGAGAGTT against Lrrtm2 is inactive: -0.795; for CCUGGCAUAAGUGGUUUUATT against Zfp82 it is inactive: 3.06; for GGAACUCACACAGAACCAATT against Pldn it is inactive: -0.949. The figure for GGAUGAUGACGACAUUGAUTT against Eef1b2 is inactive: -1.74; for GGAAUGCCGGAUUGCUCACTT against BC008163 it is inactive: 1.25. GGUUGUGUCAAUAAAAACATT against Dusp2: the z-score was inactive: 1.79.

For CCAAAUAACCUGCUACGAGTT against Gpr43, the z-score is inactive: 0.874. As for GGGUUGUGUCUGAAGAGAATT against Phf17, the z-score was inactive: -0.948. As to GGUCAAGUCACUGGUGACGTT against Fabp3, the z-score was inactive: -1.23. GGGACAGACUGAAAAAUUCTT against Pde4d: the z-score was inactive: 1.28.

GGGCUCAUCCUUAAAGAUUTT against Jarid1c: the z-score is inactive: 0.903. On to GGUGCCAAUCAUUGUUAUGTT against Kcnv1, for which the z-score was inactive: 1.05. For the sequence GCGAAGUCAUCAAAUUUUCTT against Abcb11, the z-score is inactive: 0.966. Take ACUACAUUACCAGAAGACATT against Olfr1178: the z-score was inactive: 0.405. For GCCUUGAACCUUCACACCUTT against Ccl8, the z-score is inactive: 0.712. GCGAAUUGCAUUCCUGUUUTT against BC033609: the z-score is inactive: -1.16. GGGAGGAGAUUAUUUCUAUTT against Nmnat2: the z-score was inactive: -1.67. As to CCUCCAUUAACUAUGUUAGTT against Chd1l, the z-score was inactive: 0.853. Then GGCAACACUUAAGCCUGAGTT against MGC59495, with inactive: -2.28; and “GCAAGUUCAACCUCAAGGGTT against 5430400N05Rik”, with inactive: 0.636; and GGAGGAUGGAAAGAUAAAATT against Slc25a27, with inactive: -0.845. The figure for GCCACAUUCCGAAUACUCUTT against Disp1 is inactive: -0.96. For the sequence GGCCCUAGUUACAACAAAATT against V1rg4, the z-score was inactive: 1.62. Consider “GGUAUCCAUACUUCCACCCTT against 4930474N05”, for which the z-score is inactive: -0.838. As to GGUGAAGGCUUACCAGAUUTT against Oog1, the z-score was inactive: -2.33. Take GGCUCCUUAAAGAUAUGUUTT against Nsmaf: the z-score is inactive: 0.332.

As to GCGUGAGUAUGAGAAAUGUTT against BC029103, the z-score was inactive: -0.772.

In the case of CCACAAGUUCACUAAGGAGTT against Six3, the z-score is inactive: -0.971.

On to GGCCUAACCUCCAAAAGUATT against Xpo4, for which the z-score was inactive: -1.72. Then GGUUUGUGGAUGACAACGGTT against Mtf1, with inactive: 1.8; and GCUAGUUUAAGAGACUUUGTT against Nfatc2ip, with inactive: -0.253; and GGAGGUUCUACCCUGUUCATT against Actr1a, with inactive: -1.38. With GGGUUAUGAAGAAGCUCCUTT against Olfr1262, the z-score is inactive: -0.163.

As for GGACAAGAAAAGGAAGAAGTT against Ap3d1, the z-score was inactive: 0.269.

In the case of GGAAAUUUGGAUUGAUGAATT against Mef2c, the z-score is inactive: 1.15. For GGGAGCACCAGCAAUGGAUTT against Col17a1, the z-score was inactive: -0.188.

With “GCUUAAAGCUGCCUAAAAATT against 1700021F05Rik”, the z-score is inactive: 0.848. In the case of GGUGGUAACGGAAAACCUGTT against Wnt10b, the z-score is inactive: 2.31. With GGAAGCUCAUUUUCACGUGTT against Slc22a19, the z-score is inactive: 0.555. Take “GGCAAGCCAGAGAAACUGATT against 3100004P22Rik”: the z-score was inactive: -1.83. Regarding “GGGCUUGAGAAAGAGGAUUTT against E330021D16Rik”, the z-score is inactive: 0.0729. With GAGGGCCAUCUCUGACAUGTT against Avp, the z-score is inactive: -0.814. Take GGUAUUCUUGGAAGGAGGGTT against Prss22: the z-score is inactive: 1.18. For GGAGCUGUUCAUCGAACAATT against Nol7, the z-score is inactive: 0.301. Turning to GGUUACCUGCUGUGUUUUGTT against Muc2, the z-score was inactive: 1.79. With “GGGAAGCCAAACAGAAUCATT against 1700041G16Rik”, the z-score is inactive: -0.261. Then GAAAACAGAAAACCCACAGTT against V1ri8, with inactive: 1.66; and “CAACACCAUUCCUAAAUCATT against 4931407G18Rik”, with inactive: 0.0414. Consider CCACUUCUCAGGUUAAUGGTT against Fen1, for which the z-score is inactive: 0.421. “GCUGAUCCACGACUACUUGTT against 1700012B15Rik”: the z-score is inactive: 0.191. Consider GGCAAAAAUACCCAAUUUUTT against Timm22, for which the z-score was inactive: 2.13. On to GGAGCUCGAAAAAUUUCAATT against Gm580, for which the z-score was inactive: -0.345. Take CGUGUGAAGUAAAGAUGUUTT against Mrp63: the z-score was inactive: -0.663. Turning to GAAUUUGGACAUAGUUAUGTT against Ptcra, the z-score is inactive: -0.095. In the case of “GCUUUUAGGCACCUGUGCUTT against 1100001G20Rik”, the z-score is inactive: 0.129. With GGCCGUAUCUGUCUCCUUUTT against Defcr, the z-score was inactive: 0.351. As to GCAGUUUGUGGAUAUGUCATT against Treh, the z-score was inactive: 2.11. The figure for GGUUUAUGAUCCACUUUCCTT against Ipp is inactive: -0.00412; for GGACAAGAAGCUGUCCAAGTT against Atoh7 it is inactive: -1.83. On to GCACCUCCACAAGAAUGAATT against Six2, for which the z-score was inactive: 0.257.

As for GGCCCUUUGAAGAGAAUCGTT against Hnrpul1, the z-score is inactive: -0.699. The figure for CGAGAAAAUGGAUUCUACCTT against Atp10d is inactive: -0.182; for GGAUGAUGCCGUGUAUGAGTT against Kirrel3 it is inactive: 0.985; for “GGGAAGGAACAGUAAAUAATT against 2310012P17Rik” it is inactive: -2.08.

Consider “GGUGUCAGGAUUUUAUAACTT against 4833442J19Rik”, for which the z-score was inactive: 0.932.

Take GGUGUUCCUCAUGGUGACCTT against BC021367: the z-score is inactive: -0.143. In the case of GGACUUCUUAUGGAAAAGATT against Xlr5, the z-score was inactive: -0.438.

Turning to GGUUUUUAACAAGCUAAUCTT against Bzw1, the z-score is inactive: -0.651. Then GGAUUCUUCACAGCGGAUGTT against MGC49146, with inactive: 1.15; and GCACUGCUGUCUAUAUUCATT against Olfr117, with inactive: -0.153; and GCUUUGACUUGAAACAAAATT against LOC574530, with inactive: 0.897. The figure for GGCUUACUUCAUUUCAGUUTT against Zfp526 is inactive: -0.283; for “GCUACUGCACAAAGUUACGTT against 1700012M14Rik” it is inactive: -0.0568. The figure for GGUUUUUGCUGAGUCUUGCTT against Olfr299 is inactive: 1.22; for “GCAGCUAAGCAACUUCAAUTT against 2310005N03Rik” it is inactive: 0.526. Turning to GGUGCAAAGACAAGUUAAATT against Shh, the z-score was inactive: -0.221. Turning to CCAAGCCCACAACGAUCGUTT against Triobp, the z-score was inactive: 0.0901.

With CCUCUCUACUACAGACCUUTT against Olfr1058, the z-score is inactive: -0.92. With ACCUGUUGAGCAAAGAAUGTT against Cst8, the z-score was inactive: 0.14. In the case of “GGAGAUUCCAGAGUUCUUGTT against A930040G15Rik”, the z-score is inactive: 0.0832. The figure for “GCAUGUGGAGAACGACUAUTT against 3110043J09Rik” is inactive: -2.24.

As for GCUAUCCUAAUCCUCAAUATT against BC020151, the z-score was inactive: -0.862. Consider “GCACGGAAGAAUCCAAAGATT against C030011O14Rik”, for which the z-score was inactive: -2.23. Then “GCACCUGACAGAUACUUCCTT against 2610034N24Rik”, with inactive: -2.31; and CCAUCUGCAUCAAGAGAAATT against Kirrel2, with inactive: -0.354; and GGACAAUAGAUGUGUUUGATT against Ddb2, with inactive: 0.492.

Turning to “GCCAGUCAUUAUAGUUAACTT against 1300013J15Rik”, the z-score is inactive: -0.121. The figure for “GGGAGAGUCUUUUUUUAAATT against 1600019O04Rik” is inactive: -0.0165; for “CCUACGACCUUCUCUACCATT against 2310046G15Rik” it is inactive: 0.34; for CCUAACUUCACCAUAAUCATT against Xrn2 it is inactive: 0.382. In the case of GGUCAAAAUGUCUUUGGAATT against Rgs1, the z-score was inactive: 0.494. Consider CGGUUAGACAGUGCACCAATT against Dnm1, for which the z-score is inactive: -1.53. On to ACUUCCUGAUUGAGAGAAATT against Olfr497, for which the z-score is inactive: -1.1. The figure for GGUGCUCAGCAUGUUUGCUTT against Avpr1b is inactive: 0.497; for “GCACCAGCUCUAAUUCAGATT against 5031400M07Rik” it is inactive: -1.12; for GCCCAUGGAUACAGAAACUTT against AW319487 it is inactive: -0.374. The figure for GCACCAGGAGUUACCUGUATT against Tex2 is inactive: -0.278; for GGCUGUCUUACAAUGUAAUTT against Gabrb2 it is inactive: 0.0623; for GGGAAUGAACCUAGAAGAGTT against Ecgf1 it is inactive: 0.587. Then GGUCAUGAGAUCAGCCCUUTT against Adh5, with inactive: -1.78; and CCAUGUCAAGCGGAUAGCATT against Mc5r, with inactive: -0.954; and GCAACUUGUGCCUCUGCUATT against Dhh, with inactive: -1.64. Regarding GGACAAAAGACAAUCGAGATT against Adprtl2, the z-score was inactive: -0.365.
